# Measurements from paper PMC5996148.
# Where “and” joins values, the source holds several entries; their conditions need not be identical. Equal entries are not always repeated. The list shows a part of the results. For some assays here: The source does not settle which construct or isoform was used.
# Legend:
# Test in all cases: protein microarray (ProtoArray v5.0), streptavidin-Alexa Fluor 647
# Details in all cases: 3'-biotin; 20 mM Tris (pH 7.5), 5 mM MgCl2, 100 mM KCl, 0.1% Tween-20, A/T-rich and random oligonucleotide blockers; temperature not stated; high values mean tight binding
# [1] = system: Annexin-2 receptor (human)
# [2] = system: Apolipoprotein A-IV (human)
# [3] = system: Apolipoprotein L2 (human)
# Aprataxin (human) = system: Aprataxin (human)
# Arfaptin-1 (human) = system: Arfaptin-1 (human)
# [4] = system: Armadillo repeat-containing protein 6 (human)
# [5] = system: Aromatic-L-amino-acid decarboxylase (human)
# Ataxin-3 (human) = system: Ataxin-3 (human)
# [6] = system: Autophagy-related protein 3 (human)
# BAG2 (human) = system: BAG2 (human)
# BATF2 = biological target: T1, BATF2 (UniProt Q8N1L9)
# T1 sequence: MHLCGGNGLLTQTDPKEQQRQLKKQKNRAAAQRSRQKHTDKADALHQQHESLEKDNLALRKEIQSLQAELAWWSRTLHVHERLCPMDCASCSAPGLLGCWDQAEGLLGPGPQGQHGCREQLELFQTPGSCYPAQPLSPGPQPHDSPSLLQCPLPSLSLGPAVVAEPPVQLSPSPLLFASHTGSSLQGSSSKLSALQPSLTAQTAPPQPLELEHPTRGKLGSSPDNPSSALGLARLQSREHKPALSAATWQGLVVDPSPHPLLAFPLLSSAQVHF
# BBS7 (human) = system: BBS7 (human)
# BCKDK = BCKDK (UniProt O14874)
# BCL10 = biological target: T2, BCL10 (UniProt O95999)
# T2 sequence: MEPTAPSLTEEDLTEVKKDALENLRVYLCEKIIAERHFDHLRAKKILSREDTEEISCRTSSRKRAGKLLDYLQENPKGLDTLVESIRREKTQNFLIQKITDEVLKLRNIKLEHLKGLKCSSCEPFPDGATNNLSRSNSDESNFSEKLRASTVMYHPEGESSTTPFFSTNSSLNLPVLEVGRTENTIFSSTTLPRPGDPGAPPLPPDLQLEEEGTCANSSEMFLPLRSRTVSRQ
# BCL2A1 (human) = system: BCL2A1 (human)
# BCL2L11 (human) = system: BCL2L11 (human)
# BCL2L13 (human) = system: BCL2L13 (human)
# BHMT (human) = system: BHMT (human)
# BHMT2 (human) = system: BHMT2 (human)
# BID (human) = system: BID (human)
sequence,measurement,setting,value
GGTGACAGGGGTATGGGGAGGGG [G4-2 biotinylated (Ct1)],binding signal,[1],-0.391 z-score and -0.36 z-score
same,binding signal,[2],-0.394 z-score
same,binding signal,[3],-0.388 z-score
same,binding signal,Aprataxin (human),3.37 z-score
same,binding signal,Arfaptin-1 (human),-0.4 z-score
same,binding signal,[4],-0.386 z-score
same,binding signal,[5],-0.391 z-score
same,binding signal,Ataxin-3 (human),-0.394 z-score
same,binding signal,[6],-0.4 z-score
same,binding signal,BAG2 (human),-0.371 z-score
same,binding signal,BATF2,-0.388 z-score
same,binding signal,BBS7 (human),-0.383 z-score
same,binding signal,BCKDK,-0.369 z-score
same,binding signal,BCL10,-0.362 z-score
same,binding signal,BCL2A1 (human),-0.391 z-score
same,binding signal,BCL2L11 (human),-0.406 z-score
same,binding signal,BCL2L13 (human),-0.398 z-score
same,binding signal,BHMT (human),-0.374 z-score
same,binding signal,BHMT2 (human),-0.376 z-score
same,binding signal,BID (human),-0.386 z-score and -0.391 z-score

# Fetched one by one from above:
sequence,measurement,setting,value
GGTGACAGGGGTATGGGGAGGGG [G4-2 biotinylated (Ct1)],binding signal,Arfaptin-1 (human),-0.4 z-score
same,binding signal,BCL2L11 (human),-0.406 z-score
